Assay results from the supplement of paper PMC12067093, “Discovery and optimisation of a covalent ligand for TRIM25 and its application to targeted protein ubiquitination” (Chemical Science, 2025).
The list shows a part of the results.

Amino acid sequences for entries named in this document (tags omitted). A change or cut given only in a name is not applied to a line headed by its entry.
UniProt Q9Y6Y0: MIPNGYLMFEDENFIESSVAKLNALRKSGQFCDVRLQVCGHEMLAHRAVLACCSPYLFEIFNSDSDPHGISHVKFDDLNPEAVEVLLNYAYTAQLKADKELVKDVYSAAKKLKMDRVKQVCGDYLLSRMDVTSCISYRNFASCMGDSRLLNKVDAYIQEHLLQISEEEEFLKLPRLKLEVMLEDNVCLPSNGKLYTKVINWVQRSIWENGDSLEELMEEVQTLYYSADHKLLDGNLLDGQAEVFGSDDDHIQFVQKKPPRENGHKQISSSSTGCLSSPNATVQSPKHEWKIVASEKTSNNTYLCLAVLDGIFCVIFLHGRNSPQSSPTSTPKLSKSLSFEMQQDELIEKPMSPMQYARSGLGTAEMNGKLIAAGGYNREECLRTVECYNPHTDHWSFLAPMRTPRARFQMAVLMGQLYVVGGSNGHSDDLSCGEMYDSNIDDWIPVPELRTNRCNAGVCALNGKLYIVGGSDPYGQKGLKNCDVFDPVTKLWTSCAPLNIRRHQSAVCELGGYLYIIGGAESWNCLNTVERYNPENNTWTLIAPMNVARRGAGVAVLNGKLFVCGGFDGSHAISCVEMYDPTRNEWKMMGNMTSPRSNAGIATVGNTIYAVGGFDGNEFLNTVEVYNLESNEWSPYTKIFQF
UniProt O75164: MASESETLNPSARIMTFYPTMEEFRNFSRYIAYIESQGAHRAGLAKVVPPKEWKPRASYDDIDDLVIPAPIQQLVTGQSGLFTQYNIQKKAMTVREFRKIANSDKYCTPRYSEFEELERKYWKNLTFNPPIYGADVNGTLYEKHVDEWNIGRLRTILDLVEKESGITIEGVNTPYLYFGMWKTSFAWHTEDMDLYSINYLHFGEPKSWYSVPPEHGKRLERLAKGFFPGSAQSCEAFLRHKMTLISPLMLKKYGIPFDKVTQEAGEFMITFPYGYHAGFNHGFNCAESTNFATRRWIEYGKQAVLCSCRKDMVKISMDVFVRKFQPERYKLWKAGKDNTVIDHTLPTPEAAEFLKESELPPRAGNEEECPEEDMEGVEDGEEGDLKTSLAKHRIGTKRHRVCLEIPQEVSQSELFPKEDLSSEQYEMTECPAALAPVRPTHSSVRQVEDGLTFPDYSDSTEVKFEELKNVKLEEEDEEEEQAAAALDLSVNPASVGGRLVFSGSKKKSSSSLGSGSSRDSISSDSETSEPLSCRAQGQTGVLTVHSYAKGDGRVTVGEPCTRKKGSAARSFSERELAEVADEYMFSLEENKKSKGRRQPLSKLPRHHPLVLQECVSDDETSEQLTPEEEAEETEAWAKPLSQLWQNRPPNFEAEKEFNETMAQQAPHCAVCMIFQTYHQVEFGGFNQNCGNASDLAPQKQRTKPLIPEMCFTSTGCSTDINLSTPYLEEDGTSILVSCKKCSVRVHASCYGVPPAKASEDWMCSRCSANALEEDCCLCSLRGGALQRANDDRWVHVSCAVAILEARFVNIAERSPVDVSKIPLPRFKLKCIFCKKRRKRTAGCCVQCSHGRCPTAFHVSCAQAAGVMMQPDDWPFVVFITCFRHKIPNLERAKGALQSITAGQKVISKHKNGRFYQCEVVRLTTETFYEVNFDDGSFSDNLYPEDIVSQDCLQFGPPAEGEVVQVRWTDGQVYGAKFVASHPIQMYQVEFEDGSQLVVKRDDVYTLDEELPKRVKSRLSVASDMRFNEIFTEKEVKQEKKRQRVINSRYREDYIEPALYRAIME
UniProt Q7LBC6: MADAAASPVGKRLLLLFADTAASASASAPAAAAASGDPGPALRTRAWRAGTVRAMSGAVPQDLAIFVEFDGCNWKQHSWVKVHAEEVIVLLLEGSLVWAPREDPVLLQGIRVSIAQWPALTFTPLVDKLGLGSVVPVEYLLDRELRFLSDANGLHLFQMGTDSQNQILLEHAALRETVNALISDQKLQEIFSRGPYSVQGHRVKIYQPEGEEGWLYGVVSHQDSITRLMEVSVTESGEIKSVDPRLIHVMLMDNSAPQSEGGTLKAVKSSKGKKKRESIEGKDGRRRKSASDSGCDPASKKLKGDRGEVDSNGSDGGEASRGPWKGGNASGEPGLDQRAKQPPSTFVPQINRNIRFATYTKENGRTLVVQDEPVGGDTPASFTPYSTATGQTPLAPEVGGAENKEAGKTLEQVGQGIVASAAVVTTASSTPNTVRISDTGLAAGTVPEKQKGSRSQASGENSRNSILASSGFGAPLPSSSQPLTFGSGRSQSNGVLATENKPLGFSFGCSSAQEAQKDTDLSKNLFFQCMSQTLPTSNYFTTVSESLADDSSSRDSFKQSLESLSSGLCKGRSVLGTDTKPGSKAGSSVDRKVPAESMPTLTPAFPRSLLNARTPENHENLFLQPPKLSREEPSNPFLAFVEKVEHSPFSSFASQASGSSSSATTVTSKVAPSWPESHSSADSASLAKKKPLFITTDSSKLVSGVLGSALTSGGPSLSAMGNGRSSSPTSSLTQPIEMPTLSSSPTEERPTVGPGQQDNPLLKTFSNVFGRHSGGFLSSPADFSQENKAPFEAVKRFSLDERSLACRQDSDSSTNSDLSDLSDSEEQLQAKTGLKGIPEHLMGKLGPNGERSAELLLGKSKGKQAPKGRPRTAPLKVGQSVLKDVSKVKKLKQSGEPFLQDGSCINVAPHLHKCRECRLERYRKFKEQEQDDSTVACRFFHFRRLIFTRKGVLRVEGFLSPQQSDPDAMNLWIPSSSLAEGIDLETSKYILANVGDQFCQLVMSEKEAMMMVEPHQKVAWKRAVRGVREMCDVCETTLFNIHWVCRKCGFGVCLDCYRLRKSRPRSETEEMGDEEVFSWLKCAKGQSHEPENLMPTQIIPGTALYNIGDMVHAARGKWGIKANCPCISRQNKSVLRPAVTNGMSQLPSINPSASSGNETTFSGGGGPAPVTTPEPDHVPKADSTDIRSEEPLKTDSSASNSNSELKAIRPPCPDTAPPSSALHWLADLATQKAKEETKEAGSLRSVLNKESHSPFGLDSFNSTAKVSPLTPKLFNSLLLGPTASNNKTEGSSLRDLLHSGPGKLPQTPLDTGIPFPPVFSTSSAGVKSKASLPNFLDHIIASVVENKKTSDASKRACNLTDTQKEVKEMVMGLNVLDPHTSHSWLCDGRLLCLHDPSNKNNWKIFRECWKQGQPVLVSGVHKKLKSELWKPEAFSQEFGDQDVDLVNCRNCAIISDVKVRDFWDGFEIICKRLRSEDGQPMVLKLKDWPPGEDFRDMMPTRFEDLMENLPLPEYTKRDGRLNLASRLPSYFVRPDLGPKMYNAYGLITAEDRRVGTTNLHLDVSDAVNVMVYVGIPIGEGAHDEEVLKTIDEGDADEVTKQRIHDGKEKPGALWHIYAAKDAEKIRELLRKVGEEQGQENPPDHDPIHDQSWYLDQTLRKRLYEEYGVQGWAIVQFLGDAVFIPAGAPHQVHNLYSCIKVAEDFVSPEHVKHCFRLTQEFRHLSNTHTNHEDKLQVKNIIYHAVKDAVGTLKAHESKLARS
UniProt Q9Y2K7: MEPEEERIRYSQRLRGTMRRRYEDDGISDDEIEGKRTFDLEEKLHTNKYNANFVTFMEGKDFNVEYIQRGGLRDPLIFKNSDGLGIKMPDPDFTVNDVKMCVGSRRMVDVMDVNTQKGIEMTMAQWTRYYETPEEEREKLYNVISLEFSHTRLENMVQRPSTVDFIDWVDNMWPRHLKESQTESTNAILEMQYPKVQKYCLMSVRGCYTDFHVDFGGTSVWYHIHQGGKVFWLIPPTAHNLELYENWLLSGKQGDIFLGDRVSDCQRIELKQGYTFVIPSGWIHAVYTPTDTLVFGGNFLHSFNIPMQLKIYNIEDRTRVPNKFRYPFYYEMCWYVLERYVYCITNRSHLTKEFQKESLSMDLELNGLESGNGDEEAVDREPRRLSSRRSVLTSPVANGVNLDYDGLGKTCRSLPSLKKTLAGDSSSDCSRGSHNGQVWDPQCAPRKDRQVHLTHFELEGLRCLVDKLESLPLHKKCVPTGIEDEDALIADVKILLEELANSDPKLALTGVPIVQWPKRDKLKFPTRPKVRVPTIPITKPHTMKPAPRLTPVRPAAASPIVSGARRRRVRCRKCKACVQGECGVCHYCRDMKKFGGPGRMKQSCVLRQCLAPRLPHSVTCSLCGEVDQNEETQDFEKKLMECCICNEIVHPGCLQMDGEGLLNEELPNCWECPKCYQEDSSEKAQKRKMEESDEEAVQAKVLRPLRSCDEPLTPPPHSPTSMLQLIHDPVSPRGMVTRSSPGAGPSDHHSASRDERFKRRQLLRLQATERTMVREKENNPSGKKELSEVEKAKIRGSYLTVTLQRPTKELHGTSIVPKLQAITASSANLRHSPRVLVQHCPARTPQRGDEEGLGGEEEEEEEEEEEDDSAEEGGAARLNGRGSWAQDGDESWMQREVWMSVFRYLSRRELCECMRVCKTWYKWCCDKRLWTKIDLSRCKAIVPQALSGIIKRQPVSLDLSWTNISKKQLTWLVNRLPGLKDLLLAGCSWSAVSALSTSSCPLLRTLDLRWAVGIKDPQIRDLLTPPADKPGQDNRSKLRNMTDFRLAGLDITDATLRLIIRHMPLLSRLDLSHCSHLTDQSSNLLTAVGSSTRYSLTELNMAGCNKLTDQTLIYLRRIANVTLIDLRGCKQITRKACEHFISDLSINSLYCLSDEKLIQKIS
UniProt Q9NQT8: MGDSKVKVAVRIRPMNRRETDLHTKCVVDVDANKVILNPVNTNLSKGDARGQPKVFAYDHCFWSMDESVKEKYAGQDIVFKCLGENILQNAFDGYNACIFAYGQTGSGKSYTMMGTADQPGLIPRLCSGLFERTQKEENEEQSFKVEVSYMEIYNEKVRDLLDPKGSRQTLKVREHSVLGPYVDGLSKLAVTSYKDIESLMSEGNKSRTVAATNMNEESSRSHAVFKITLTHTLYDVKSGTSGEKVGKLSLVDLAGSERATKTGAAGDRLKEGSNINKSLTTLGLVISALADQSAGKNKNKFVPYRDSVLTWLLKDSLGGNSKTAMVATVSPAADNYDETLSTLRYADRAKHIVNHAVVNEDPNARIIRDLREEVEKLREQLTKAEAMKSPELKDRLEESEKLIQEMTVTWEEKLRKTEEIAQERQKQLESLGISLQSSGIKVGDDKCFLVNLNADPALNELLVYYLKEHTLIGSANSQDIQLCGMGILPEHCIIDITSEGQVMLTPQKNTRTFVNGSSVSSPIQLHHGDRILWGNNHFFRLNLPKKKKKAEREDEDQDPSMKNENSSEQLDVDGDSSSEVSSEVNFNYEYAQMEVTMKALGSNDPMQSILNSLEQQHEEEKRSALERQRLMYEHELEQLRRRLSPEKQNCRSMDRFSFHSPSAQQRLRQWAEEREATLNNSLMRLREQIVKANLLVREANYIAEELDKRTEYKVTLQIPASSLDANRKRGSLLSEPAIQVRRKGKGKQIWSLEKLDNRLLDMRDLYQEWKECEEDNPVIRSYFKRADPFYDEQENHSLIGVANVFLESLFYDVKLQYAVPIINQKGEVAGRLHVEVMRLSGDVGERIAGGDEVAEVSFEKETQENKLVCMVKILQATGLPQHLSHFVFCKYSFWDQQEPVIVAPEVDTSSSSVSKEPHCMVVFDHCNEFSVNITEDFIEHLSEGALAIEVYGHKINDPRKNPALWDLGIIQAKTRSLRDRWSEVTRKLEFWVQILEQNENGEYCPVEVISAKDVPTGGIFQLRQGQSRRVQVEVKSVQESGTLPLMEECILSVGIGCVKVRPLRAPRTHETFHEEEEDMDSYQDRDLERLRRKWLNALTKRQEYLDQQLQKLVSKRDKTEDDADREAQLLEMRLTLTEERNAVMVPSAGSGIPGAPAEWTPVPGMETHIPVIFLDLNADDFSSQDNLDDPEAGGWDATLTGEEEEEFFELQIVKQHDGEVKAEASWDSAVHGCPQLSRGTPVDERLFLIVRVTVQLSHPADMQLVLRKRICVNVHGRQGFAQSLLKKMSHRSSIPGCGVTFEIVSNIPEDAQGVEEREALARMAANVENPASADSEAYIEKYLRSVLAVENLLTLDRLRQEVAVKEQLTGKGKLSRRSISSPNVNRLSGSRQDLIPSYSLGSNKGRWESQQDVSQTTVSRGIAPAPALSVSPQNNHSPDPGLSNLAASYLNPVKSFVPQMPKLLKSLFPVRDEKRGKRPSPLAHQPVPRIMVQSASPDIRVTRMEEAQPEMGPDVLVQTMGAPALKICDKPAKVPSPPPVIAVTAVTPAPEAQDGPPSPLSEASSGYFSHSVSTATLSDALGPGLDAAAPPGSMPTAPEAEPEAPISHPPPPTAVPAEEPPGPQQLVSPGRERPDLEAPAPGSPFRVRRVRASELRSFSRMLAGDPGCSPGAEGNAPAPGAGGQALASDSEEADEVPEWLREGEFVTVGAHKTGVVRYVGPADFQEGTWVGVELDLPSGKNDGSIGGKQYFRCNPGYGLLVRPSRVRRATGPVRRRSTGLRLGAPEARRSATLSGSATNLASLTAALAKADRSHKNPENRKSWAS

Compound: Cc1cc(ccc1-c1ccccc1)C(=O)N1CCCN(CC1)C(=O)CCl [compound 10]
Test: probe-labelled cysteine peptide fold change vs DMSO (competition) (log2 fold change); higher = less target engagement (more negative = stronger competition)
Details: 10 µM; THP-1; incubation time: 4 h
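Note: competitive profiling in live THP-1 cells: cysteine peptides tagged with an iodoacetamide desthiobiotin (IA-DTB) probe, intensity after compound treatment relative to DMSO-treated cells.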

Row | Target | probe-labelled cysteine peptide fold change
1 | IVNS1ABP_Q9Y6Y0_482_NCDVFDPVTK (UniProt Q9Y6Y0) | 0.273
2 | KCTD12_Q96CX2_50_CTVVSVPDSLLWR (UniProt Q96CX2) | 0.0972
3 | KDM4A_O75164_917_FYQCEVVR (UniProt O75164) | 0.115
4 | JOSD2_Q8TAC2_24_LELCAVHALNNVLQQQLFSQEAADEICKR (UniProt Q8TAC2) | 0.0239
5 | KDM3B_Q7LBC6_1386_EMVMGLNVLDPHTSHSWLCDGR (UniProt Q7LBC6) | 0.0519
6 | JMJD1C_Q15652_508_CVIDITNDTNLEK (UniProt Q15652) | -0.239
7 | KDM3B_Q7LBC6_1357_ACNLTDTQK (UniProt Q7LBC6) | -0.781
8 | KIF1B_O60333_356_CNAVINEDPNAK (UniProt O60333) | -0.214
9 | ITPRIP_Q8IWB1_268_LGEDMLCLLHGR (UniProt Q8IWB1) | -0.0254
10 | KIF15_Q9NS87_1062_ILSEDIERDMLCEDLAHATEQLNMLTEASK (UniProt Q9NS87) | 0.00745
11 | ITPR2_Q14571_1385_DRGDESGPLAYHITLVELLAACTEGK (UniProt Q14571) | 0.482
12 | KDM4A_O75164_844+847_TAGCCVQCSHGR (UniProt O75164) | 0.135
13 | KCMF1_Q9P0J7_9+12_HEGVSCDACLK (UniProt Q9P0J7) | -0.0383
14 | IVD_P26440_355_ACDEGHCTAK (UniProt P26440) | 0.0649
15 | KDM2A_Q9Y2K7_1104_YSLTELNMAGCNK (UniProt Q9Y2K7) | 0.268
16 | KIF13B_Q9NQT8_773_ECEEDNPVIR (UniProt Q9NQT8) | -0.138

Part of the list above in another layout.

| Row | Target | probe-labelled cysteine peptide fold change |
| --- | --- | --- |
| 10 | KIF15_Q9NS87_1062_ILSEDIERDMLCEDLAHATEQLNMLTEASK (UniProt Q9NS87) | 0.00745 |
| 15 | KDM2A_Q9Y2K7_1104_YSLTELNMAGCNK (UniProt Q9Y2K7) | 0.268 |
| 16 | KIF13B_Q9NQT8_773_ECEEDNPVIR (UniProt Q9NQT8) | -0.138 |
